# Measurements reported in PubChem BioAssay AID1259308 (NCATS, 2017).
# Assay: 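Knock-downs that increase output of a recombinant reporter protein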 (primary screen)
# Cell system: human HEK293 embryonic kidney cells stably expressing firefly luciferase (HEK-CMV-Luc2-Hygro)
# Knock-down reagent: single siRNA against human genes, 0.8 pmol siRNA per well
# Duration: 72 h
# Measurement: 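Reporter luminescence and viable-cell signal on separate replicate plates, given as percent of non-targeting control and median/MAD z-scores, plus per-cell luciferase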
# Scale: total luciferase, z-score and total luciferase, % of control: higher = more reporter protein produced
# Call rule: 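An siRNA counts as active if its total luciferase robust z-score exceeds 3; genes with two or more such siRNAs out of three were retested with fresh siRNAs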
# Calls: active = raised luciferase; inactive = no rise
# In all, the deposit lists about 59,000 reagents; shown is an unselected part. Of all reagents, about 1,510 (2.6%) were called active. 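Calls use total luciferase alone and ignore viability, so some active siRNAs may act by altering cell number.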 Reagents against one gene are numbered here. Not all columns of the deposit are shown. No sequences are given here.
target,reagent,"total luciferase, z-score","total luciferase, % of control",activity call
RPL23AP37 (ribosomal protein L23a pseudogene 37),1,-1.9,44.1,inactive
RPL23AP37 (ribosomal protein L23a pseudogene 37),2,-1.88,44.6,inactive
RPL23AP37 (ribosomal protein L23a pseudogene 37),3,0.332,88.5,inactive
PPCDC (phosphopantothenoylcysteine decarboxylase),1,-0.186,78.2,inactive
PPCDC (phosphopantothenoylcysteine decarboxylase),2,0.446,90.8,inactive
PPCDC (phosphopantothenoylcysteine decarboxylase),3,-0.793,66.1,inactive
PSMC3IP (PSMC3 interacting protein),1,-0.0149,81.6,inactive
PSMC3IP (PSMC3 interacting protein),2,-0.887,64.3,inactive
PSMC3IP (PSMC3 interacting protein),3,-0.101,79.9,inactive
CASP14 (caspase 14),1,-0.199,77.9,inactive
CASP14 (caspase 14),2,-1.01,61.8,inactive
CASP14 (caspase 14),3,5.24,186,active
NEK11 (NIMA related kinase 11),1,-0.403,73.9,inactive
NEK11 (NIMA related kinase 11),2,-0.87,64.6,inactive
NEK11 (NIMA related kinase 11),3,1.66,115,inactive
CARF (calcium responsive transcription factor),1,0.297,87.8,inactive
CARF (calcium responsive transcription factor),2,0.463,91.1,inactive
CARF (calcium responsive transcription factor),3,-0.351,74.9,inactive
CARF (calcium responsive transcription factor),4,0.811,98,inactive
CARF (calcium responsive transcription factor),5,1.95,121,inactive
CARF (calcium responsive transcription factor),6,1.68,115,inactive
NDUFB7 (NADH:ubiquinone oxidoreductase subunit B7),1,0.656,94.9,inactive
NDUFB7 (NADH:ubiquinone oxidoreductase subunit B7),2,0.47,91.2,inactive
NDUFB7 (NADH:ubiquinone oxidoreductase subunit B7),3,-0.13,79.3,inactive

Just “total luciferase, z-score” (10 entries from above):
RPL23AP37 (ribosomal protein L23a pseudogene 37) #1	-1.9
RPL23AP37 (ribosomal protein L23a pseudogene 37) #2	-1.88
RPL23AP37 (ribosomal protein L23a pseudogene 37) #3	0.332
PPCDC (phosphopantothenoylcysteine decarboxylase) #1	-0.186
PPCDC (phosphopantothenoylcysteine decarboxylase) #2	0.446
PPCDC (phosphopantothenoylcysteine decarboxylase) #3	-0.793
PSMC3IP (PSMC3 interacting protein) #1	-0.0149
PSMC3IP (PSMC3 interacting protein) #2	-0.887
PSMC3IP (PSMC3 interacting protein) #3	-0.101
CASP14 (caspase 14) #1	-0.199

The list goes on:
target,reagent,"total luciferase, z-score","total luciferase, % of control",activity call
LOC391322 (D-dopachrome tautomerase-like),1,0.307,88,inactive
LOC391322 (D-dopachrome tautomerase-like),2,1.63,114,inactive
LOC391322 (D-dopachrome tautomerase-like),3,9.8,277,active
CPSF6 (cleavage and polyadenylation specific factor 6),1,-0.711,67.7,inactive
CPSF6 (cleavage and polyadenylation specific factor 6),2,-0.52,71.5,inactive
CPSF6 (cleavage and polyadenylation specific factor 6),3,0.393,89.7,inactive
RPL36 (ribosomal protein L36),1,-2.73,27.6,inactive
RPL36 (ribosomal protein L36),2,-3.07,20.9,inactive
RPL36 (ribosomal protein L36),3,-2.32,35.8,inactive
ADAT1 (adenosine deaminase tRNA specific 1),1,-1.13,59.4,inactive
ADAT1 (adenosine deaminase tRNA specific 1),2,2.47,131,inactive
ADAT1 (adenosine deaminase tRNA specific 1),3,-0.547,71,inactive
ZC4H2 (zinc finger C4H2-type containing),1,0.117,84.2,inactive
ZC4H2 (zinc finger C4H2-type containing),2,1.8,118,inactive
ZC4H2 (zinc finger C4H2-type containing),3,-1.93,43.5,inactive
SPRYD7 (SPRY domain containing 7),1,2.3,128,inactive
SPRYD7 (SPRY domain containing 7),2,2.07,123,inactive
SPRYD7 (SPRY domain containing 7),3,-0.52,71.5,inactive
AIRIM (AFG2 interacting ribosome maturation factor),1,-1.28,56.5,inactive
AIRIM (AFG2 interacting ribosome maturation factor),2,-2.23,37.6,inactive
AIRIM (AFG2 interacting ribosome maturation factor),3,-0.412,73.7,inactive
GADD45A (growth arrest and DNA damage inducible alpha),1,-1.06,60.7,inactive
GADD45A (growth arrest and DNA damage inducible alpha),2,1.24,106,inactive
GADD45A (growth arrest and DNA damage inducible alpha),3,-1.11,59.8,inactive
LOC642696,1,0.867,99.1,inactive
LOC642696,2,0.429,90.4,inactive
LOC642696,3,-0.648,69,inactive
PCOLCE (procollagen C-endopeptidase enhancer),1,0.234,86.5,inactive
PCOLCE (procollagen C-endopeptidase enhancer),2,0.305,87.9,inactive
PCOLCE (procollagen C-endopeptidase enhancer),3,1.44,110,inactive
JRKL (JRK like),1,-0.279,76.3,inactive
JRKL (JRK like),2,-0.985,62.3,inactive
JRKL (JRK like),3,-0.965,62.7,inactive
